According to US20190071518A1 (PIERRE FABRE MEDICAMENT, published 2019):
These are yes or no findings as the source states them, for the method shown. Some results given as binding are weak or reduced against the parent protein; the word gives no strength.

Chains of the proteins cited; added tags and fusions are not shown. Lines headed by an entry give the natural chain unless they say otherwise; changes in a name come on top.
UniProt P78536: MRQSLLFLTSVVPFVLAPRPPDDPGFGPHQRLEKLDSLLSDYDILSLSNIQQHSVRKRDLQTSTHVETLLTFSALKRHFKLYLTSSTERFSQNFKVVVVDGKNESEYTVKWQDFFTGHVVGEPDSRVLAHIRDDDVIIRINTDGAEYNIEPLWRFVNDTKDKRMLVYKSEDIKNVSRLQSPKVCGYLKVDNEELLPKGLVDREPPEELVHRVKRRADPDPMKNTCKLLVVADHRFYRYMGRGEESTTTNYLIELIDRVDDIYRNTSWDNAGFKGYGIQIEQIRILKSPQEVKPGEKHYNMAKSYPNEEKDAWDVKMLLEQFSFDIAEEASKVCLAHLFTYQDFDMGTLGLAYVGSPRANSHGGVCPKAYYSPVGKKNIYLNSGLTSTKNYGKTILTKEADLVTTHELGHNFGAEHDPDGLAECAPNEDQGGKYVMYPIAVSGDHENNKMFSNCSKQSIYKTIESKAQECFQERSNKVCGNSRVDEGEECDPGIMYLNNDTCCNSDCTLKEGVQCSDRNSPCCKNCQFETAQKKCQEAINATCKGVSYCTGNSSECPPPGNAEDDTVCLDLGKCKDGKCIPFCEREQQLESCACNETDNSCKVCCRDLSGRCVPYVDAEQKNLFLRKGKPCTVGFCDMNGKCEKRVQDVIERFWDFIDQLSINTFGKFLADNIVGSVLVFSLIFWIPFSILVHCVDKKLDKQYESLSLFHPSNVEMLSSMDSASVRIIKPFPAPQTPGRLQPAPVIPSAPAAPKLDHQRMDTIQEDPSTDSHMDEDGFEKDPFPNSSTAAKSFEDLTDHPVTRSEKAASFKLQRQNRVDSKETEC

How the values were obtained:
[1] = target: human ADAM17 H1-671 (P-C-D-MPD) human Fc fusion (human) (UniProt P78536); experiment: SPR (Biacore X100), 1022C3 captured, analyte 250 nM
[2] = target: human ADAM17 H457-671 (D-MPD) human Fc fusion (human) (UniProt P78536); experiment: as above
[3] = target: human ADAM17 H1-671 (P-C-D-MPD) human Fc fusion (human) (UniProt P78536); experiment: western blot, non-reducing, 1 µg/ml 1022C3
[4] = target: human ADAM17 H457-671 (D-MPD) human Fc fusion (human) (UniProt P78536); experiment: western blot, non-reducing, 1 µg/ml 1022C3

Measured: binding

B1: murine monoclonal antibody 1022C3 (antibody, V domains shown)
VH: QVTLKESGPGILQPSQTLSLTCSFSGFSLNTSGMGVSWIRQPSGKGLEWLAHIYWDDDKRYNPSLKSRLTISKDTSSNQVFLKITSLDTADTATYYCARRSHFGNYYYAMDYWGQGTSVTVTS
VL: DVQMTQTTSSLSASLGDRVTISCRASQDISSYLNWYQQKPDGTFKLLIFYTSRLQSGVPSKYSGSGSGTDYSLTISNLEQEDIAAYFCQQGKTLPLTFGAGTKLELK
modifications: N-glycosylated asparagine in CDR-H1
notes: Murine IgG from hybridoma I-4686, captured by anti-mouse antibody in the SPR assays; also called m1022C3; mAb 1022C3
binds: [1] | [2] | [3] | [4]
